Reference: PubChem BioAssay AID248 (DTP/NCI, 2004)
The list does not hold the whole screen: it is rich in T/C values a quarter to a half above the control, in often repeated tests (any T/C) and in doses without a T/C. Further doses and runs are listed elsewhere. T/C is the treated group as % of the vehicle group. Some entries give survivors of the animals treated and no T/C: the source holds a T/C of zero for them, seemingly a mark for toxic or unscored doses. Some doses without a T/C left all or most animals alive at the check, yet need not have been tolerated: survival well below the control is almost never listed, so the zero probably covers shortened survival too. Survivors were counted at the toxicity check, usually on the fifth day, unless a day is given; later deaths do not show. Schedules are NCI's codes, read here as Q, the interval in days (D) or hours (H), X, the number of doses. Some entries hold several experiments; the values are given in rising order. Some schedule codes hold Z or #, which are not explained here. Where survival is the endpoint, this PubChem deposit counts one and a half times the control or more as active, and values a quarter to a half above the control carry no call in these data; other NCI protocols may use other cut-offs. Brackets with × give the number of equal values in this list.

Test system: L1210 leukemia ip in BDF1 mice, survival T/C
Assay: NCI In Vivo Anticancer Drug Screen. Data for tumor model L1210 Leukemia (intraperitoneal) in B6D2F1 (BDF1) mice
Settings: T/C endpoint: mean survival time, higher T/C = longer survival
[1] = dose: 400.0 mg/kg/injection, schedule: Q01DX001 (ip), vehicle: other
[2] = dose: 400.0 mg/kg/injection, schedule: Q04DX003 (ip), vehicle: saline with Tween-80
[3] = dose: 200.0 mg/kg/injection, schedule: Q01DX009 (ip), vehicle: saline with Tween-80
[4] = dose: 100.0 mg/kg/injection, schedule: Q01DX001 (ip), vehicle: saline
[5] = dose: 200.0 mg/kg/injection, schedule: Q01DX001 (ip), vehicle: saline
[6] = dose: 200.0 mg/kg/injection, schedule: Q01DX009 (ip), vehicle: Klucel (hydroxypropylcellulose) (HPC)
[7] = dose: 400.0 mg/kg/injection, schedule: Q04DX003 (ip), vehicle: saline
[8] = dose: 150.0 mg/kg/injection, schedule: Q01DX001 (ip), vehicle: saline
[9] = dose: 300.0 mg/kg/injection, schedule: Q01DX001 (ip), vehicle: saline
[10] = dose: 50.0 mg/kg/injection, schedule: Q04DX002 (ip), vehicle: other
[11] = dose: 100.0 mg/kg/injection, schedule: Q04DX002 (ip), vehicle: other
[12] = dose: 200.0 mg/kg/injection, schedule: Q04DX002 (ip), vehicle: other

For `CC(=O)Nc1nnc(NC(C)=O)s1`, the survivor count (dose: 37.5 mg/kg/injection, schedule: Q01DX001 (ip), vehicle: other) was 3 of 6, the survivor count (dose: 75.0 mg/kg/injection, schedule: Q01DX001 (ip), vehicle: other) was 2 of 6 and the survivor count (dose: 150.0 mg/kg/injection, schedule: Q01DX001 (ip), vehicle: other) was 0 of 6. For the same compound, the survivor count (dose: 300.0 mg/kg/injection, schedule: Q01DX001 (ip), vehicle: other) was 1 of 6.
For `O=C1C(Cl)=C(c2ccccc2)C(=O)C(Cl)=C1c1ccccc1`, the survivor count [1] was 1 of 6.
With `CC(C)CC(C=O)(CCN(C)C)c1cccc2ccccc12` (centres undefined) the survivor count (dose: 100.0 mg/kg/injection, schedule: Q04DX003 (ip), vehicle: saline with Tween-80) was 1 of 6, the survivor count (dose: 200.0 mg/kg/injection, schedule: Q04DX003 (ip), vehicle: saline with Tween-80) was 0 of 6 and the survivor count [2] was 0 of 6.
In the case of `N#Cc1c(N)n(C2OC(CO)C(O)C2O)c2ncnc(N)c12` (centres undefined), the T/C (dose: 4.0 mg/kg/injection, schedule: Q01DX005 (ip), vehicle: saline) is reported as 130 % of control, the T/C (dose: 8.0 mg/kg/injection, schedule: Q01DX005 (ip), vehicle: saline) is reported as 132 % of control and the survivor count (dose: 12.5 mg/kg/injection, schedule: Q01DX005 (ip), vehicle: saline) is reported as 3 of 6. For the same compound, the survivor count (dose: 25.0 mg/kg/injection, schedule: Q01DX005 (ip), vehicle: saline) was 0 of 6, the survivor count (dose: 50.0 mg/kg/injection, schedule: Q01DX005 (ip), vehicle: saline) was 0 of 6 and the survivor count (dose: 100.0 mg/kg/injection, schedule: Q01DX005 (ip), vehicle: saline) was 0 of 6. The survivor count (dose: 200.0 mg/kg/injection, schedule: Q01DX005 (ip), vehicle: saline) was 0 of 6.
In the case of `Nc1ncnc2c1ccn2C1CCC(CO)C1` (centres undefined), the survivor count [1] is reported as 0 of 4.
For `NC(N)=N/N=C/c1ccc(C(=O)O)cc1`, the survivor count (dose: 480.0 mg/kg/injection, schedule: Q01DX Z (ip), vehicle: saline) was 0 of 6.
With `CC#CC(O)(C(=O)OC1CCN(C)CC1)C(C)CC` (centres undefined) the survivor count [3] was 4 of 6 and the survivor count [2] was 0 of 6.
For `C[CH2][Ge]([CH2]C)([CH2]C)[CH2]CCO`, the survivor count (dose: 400.0 mg/kg/injection, schedule: Q04DX002 (ip), vehicle: saline with Tween-80) was 0 of 3.
In the case of `C=C[N+](C)(C)C`, the survivor count (dose: 80.0 mg/kg/injection, schedule: Q01DX001 (ip), vehicle: saline) is reported as 2 of 6, the survivor count [4] is reported as 0 of 6 and the survivor count [5] is reported as 0 of 6. The survivor count (dose: 400.0 mg/kg/injection, schedule: Q01DX001 (ip), vehicle: saline) was 0 of 6.
`O=C(O)/C=C/c1nc2ccccc2c(=O)[nH]1` was tested, and the survivor count [6] was 3 of 3.
For `O=C1C=CC(=O)N1C(c1ccccc1)c1ccccc1`, the survivor count (dose: 100.0 mg/kg/injection, schedule: Q01DX009 (ip), vehicle: Klucel (hydroxypropylcellulose) (HPC)) was 3 of 3, the survivor count (dose: 100.0 mg/kg/injection, schedule: Q04DX002 (ip), vehicle: Klucel (hydroxypropylcellulose) (HPC)) was 3 of 3 and the survivor count [6] was 0 of 3. The survivor count (dose: 400.0 mg/kg/injection, schedule: Q01DX009 (ip), vehicle: Klucel (hydroxypropylcellulose) (HPC)) was 0 of 3 and the survivor count (dose: 400.0 mg/kg/injection, schedule: Q04DX002 (ip), vehicle: Klucel (hydroxypropylcellulose) (HPC)) was 2 of 3.
For `CC/C(C)=N/NCCO`, the survivor count (dose: 50.0 mg/kg/injection, schedule: Q01DX009 (ip), vehicle: saline) was 3 of 6, the survivor count [4] was 0 of 3 and the survivor count [5] was 0 of 3.
`C=CCCCCCCCC/C=N\NC(=O)c1ccc[n+](C)c1` was tested, and the survivor count (dose: 200.0 mg/kg/injection, schedule: Q01DX009 (ip), vehicle: saline) was 0 of 3.
For `CCC(CC)(COC(=O)c1ccc(N)cc1)C1CCCCC1`, the survivor count (dose: 75.0 mg/kg/injection, schedule: Q01DX001 (ip), vehicle: carboxymethylcellulose (CMC)) was 6 of 6 and the survivor count (dose: 300.0 mg/kg/injection, schedule: Q01DX001 (ip), vehicle: carboxymethylcellulose (CMC)) was 1 of 6.
In the case of `c1ccc([P+](c2ccccc2)(c2ccccc2)c2ccc([P+](c3ccccc3)(c3ccccc3)c3ccccc3)cc2)cc1`, the survivor count (dose: 25.0 mg/kg/injection, schedule: Q04DX003 (ip), vehicle: saline) is reported as 0 of 6, the survivor count (dose: 50.0 mg/kg/injection, schedule: Q04DX003 (ip), vehicle: saline) is reported as 0 of 6 and the survivor count (dose: 100.0 mg/kg/injection, schedule: Q04DX003 (ip), vehicle: saline) is reported as 0 of 6. For the same compound, the survivor count (dose: 200.0 mg/kg/injection, schedule: Q04DX003 (ip), vehicle: saline) was 0 of 6 and the survivor count [7] was 0 of 6.
With `SC1CC[N-]CC1.SC1CC[N-]CC1.[Cl][Pt+2][Cl]` the survivor count (dose: 400.0 mg/kg/injection, schedule: Q04DX003 (ip), vehicle: water) was 2 of 6.
With `OCC1OC(n2cnc3c(Cl)ncnc32)C(O)C1O` (centres undefined) the survivor count (dose: 62.5 mg/kg/injection, schedule: Q01DX010 (ip), vehicle: saline) was 6 of 6.
`NC(=O)c1n[nH]nc1N1CC[N+](CCCl)=N1` was tested, and the T/C [3] was 128 % of control, the T/C (dose: 400.0 mg/kg/injection, schedule: Q01DX009 (ip), vehicle: saline with Tween-80) was 127 % of control and the T/C [2] was 125 % of control.
With `CC(C)=NNP(Br)(c1ccccc1)(c1ccccc1)c1ccccc1` the survivor count (dose: 75.0 mg/kg/injection, schedule: Q01DX001 (ip), vehicle: saline) was 0 of 6, the survivor count [8] was 0 of 6 and the survivor count [9] was 0 of 6.
With `O=P(O)(CO)CO` the survivor count [7] was 2 of 6.
`NC(=O)c1cn[nH]c1N1CC[N+](CCCl)=N1` was tested, and the survivor count [7] was 2 of 6.
In the case of `CSc1ccccc1NC(=O)NCCCl`, the survivor count (dose: 400.0 mg/kg/injection, schedule: Q01DX009 (ip), vehicle: saline) is reported as 6 of 6.
For `Cc1ccc(-c2nc3ccccc3c(=O)o2)cc1`, the survivor count (dose: 200.0 mg/kg/injection, schedule: Q01DX009 (ip), vehicle: gum acacia) was 2 of 6 and 3 of 6 and the survivor count (dose: 400.0 mg/kg/injection, schedule: Q04DX003 (ip), vehicle: gum acacia) was 0 of 6.
In the case of `N#Cc1nc2c(nc1C#N)-c1ccccc1C2=O`, the survivor count (dose: 25.0 mg/kg/injection, schedule: Q01DX009 (ip), vehicle: Klucel (hydroxypropylcellulose) (HPC)) is reported as 5 of 6, the survivor count (dose: 50.0 mg/kg/injection, schedule: Q04DX003 (ip), vehicle: Klucel (hydroxypropylcellulose) (HPC)) is reported as 0 of 6 and the survivor count (dose: 100.0 mg/kg/injection, schedule: Q04DX003 (ip), vehicle: Klucel (hydroxypropylcellulose) (HPC)) is reported as 1 of 6. For the same compound, the survivor count (dose: 200.0 mg/kg/injection, schedule: Q04DX003 (ip), vehicle: Klucel (hydroxypropylcellulose) (HPC)) was 0 of 6 and the survivor count (dose: 400.0 mg/kg/injection, schedule: Q04DX003 (ip), vehicle: Klucel (hydroxypropylcellulose) (HPC)) was 0 of 6.
With `Cc1cc(N(CCO)Cc2ccccc2)nc2ccccc12` the survivor count [8] was 3 of 6 and the survivor count [9] was 0 of 6.
`CN(C)CCC(O)c1ccc(Cl)cc1` (centres undefined) was tested, and the survivor count [7] was 1 of 6.
With `C=C(COc1ccc(Cl)cc1)COc1ccc(Cl)cc1` the T/C (dose: 25.0 mg/kg/injection, schedule: Q04DX002 (ip), vehicle: other) was 95, 96, 108, 110 % of control, the T/C [10] was 93, 101, 103, 107, 142 % of control and the survivor count [10] was 3 of 3. For the same compound, the T/C [11] was 92, 100, 101, 104, 106, 109, 134 % of control, the survivor count [11] was 3 of 3 and 6 of 6 and the T/C [12] was 88, 90, 92, 93 (2×), 101 % of control. The survivor count [12] was 3 of 3 and the survivor count [1] was 3 of 3.
With `CCCCCC(C[N+](C)(C)C)C(O)/C=C\c1ccccc1` (centres undefined) the survivor count (dose: 20.0 mg/kg/injection, schedule: Q04DX003 (ip), vehicle: saline) was 0 of 6.
With `O=C(Oc1ccc(N=Nc2ccccc2)c(C(=O)O)c1)Oc1ccc(N=Nc2ccccc2)c(C(=O)O)c1` the survivor count (dose: 400.0 mg/kg/injection, schedule: Q01DX001 (ip), vehicle: carboxymethylcellulose (CMC)) was 2 of 4.
For `CSC(=S)NNC(=O)c1ccc(C)cc1`, the survivor count [8] was 3 of 6 and the survivor count [9] was 0 of 6.
